The list shows a part of the results. Further columns of the screen follow, without active or inactive calls. The list favours compounds with an active or inconclusive main result. Words in brackets tell the shape of the fitted curve; partial curves, single points and poor fits give uncertain potencies.
Experiment: qHTS Assay to Find Inhibitors of Chronic Active B-Cell Receptor Signaling
Details: ABC-DLBCL IkBa-CBG/CBR reporter, luminescence ratio (green luciferase fused to IkBa over red control in TMD8 lymphoma cells), 4 h
Outline: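 Cell line TMD8 (human ABC DLBCL), stably expressing tet-inducible CBG68-IkBa fusion and CBR; IMDM/0.5% FBS; cpd up to 46 uM; dox induction, 4 h, 37C/5% CO2; dual luminescence; green/red ratio; MG132 control.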

[1] = measured here: CBR red luminescence, cell number
[2] = measured here: IkBa-CBG green luminescence

SMILES | AC50 [1] | AC50 [2]
N=c1n(CCN2CCCCC2)c2ccccc2n1CC(O)c1ccc(Cl)c(Cl)c1 (centres undefined) | 14.6 µM [falling, partial curve, poor fit] | 
COc1cc(Nc2nc(SCc3ccccc3F)nc3ccccc23)cc(OC)c1 | 35.5 µM [falling, single point] | 
CC(=O)c1cccc(OC(=O)c2cc(S(=O)(=O)N3CCOCC3)ccc2N2CCCC2)c1 | 4.11 µM [rising, full curve] | 
COc1ccccc1/C=C/C(=O)NCc1cccnc1 | 22.4 µM [falling, single point] | 
Cc1cccc(-n2nnc(C(=O)NCc3ccccc3Cl)c2N)c1 | 7.94 µM [falling, partial curve, poor fit] | 
C/C(CC(=O)Nc1ccccn1)=N\NC(=O)c1cccc(C)c1 | 4.47 µM [falling, partial curve] | 
COc1ccccc1CN1CC(C(=O)NCc2cccnc2)CC1=O (centres undefined) | 5.17 µM [rising, full curve, poor fit] | 
COc1ncccc1-c1nnn(-c2ccccc2)n1 | 10 µM [falling, partial curve, poor fit] | 
O=C(Nc1nc2c(s1)CCc1ccccc1-2)c1ccco1 | 29.1 µM [falling, single point] | 
CSc1nnc(-c2ccc(Cl)cc2Cl)o1 | 0.447 µM [rising, partial curve, poor fit] | 
CCn1c(/C=C\c2ccccc2C)nc2ccccc2c1=O | 15.8 µM [falling, single point] | 
CC(Sc1nnnn1C)C(=O)Nc1nc(-c2ccc(F)c(F)c2)cs1 (centres undefined) | 0.731 µM [rising, full curve, poor fit] | 
CC(=O)NCCc1cc2cc(C)c(C)cc2[nH]c1=O | 0.112 µM [falling, full curve, poor fit] | 
c1ccc(-n2cnc3cc(NCc4cccs4)ccc32)cc1 | 12.6 µM [falling, partial curve, poor fit] | 
C=CCOC(=O)CCC(=O)Nc1cc(OC)nc(OC)n1 |  | 25.9 µM [rising, partial curve, poor fit]
CCOc1ccccc1/C=C/c1nc2ccccc2[nH]c1=O | 35.5 µM [falling, single point] | 
COc1cc([N+](=O)[O-])ccc1NC(=O)NCC1CCN(Cc2ccc(Cl)cc2)CC1 | 17.8 µM [falling, single point] | 
CC1CN(C(=O)/C=C/c2ccc3c(c2)OCO3)CC(C)O1 (centres undefined) | 13 µM [rising, partial curve, poor fit] | 
CCOc1cccc(-c2nnc3sc(-c4cc(OC)c(OC)c(OC)c4)nn23)c1 | 2.82 µM [rising, partial curve, poor fit] | 
O=C(CC(=O)c1ccccc1O)c1ccc(F)cc1 | 1.3 µM [rising, full curve, poor fit] | 
O=C(CSc1ncccc1-c1nc2ccccc2[nH]1)NCc1ccco1 | 3.98 µM [falling, full curve] | 

SMILES | AC50 [1] | AC50 [2]
Cc1ccc(-n2nc(C)c3cc(C(=O)O)sc32)cc1 | 20.6 µM [falling, single point] | 
O=C(O)C1C2C=CC(C2)C1C(=O)Nc1ccccc1Br (centres undefined) | 3.98 µM [rising, single point] | 
O=C(/C=C/c1ccccc1)N1CCN(c2ccccn2)CC1 | 22.4 µM [falling, single point] | 
C=CCNc1nc(Nc2ccccc2F)nc(OCC)n1 | 10 µM [falling, partial curve] | 
O=C(O)c1ccc(S(=O)(=O)c2ccc3c(c2)C(=O)N(NC(=O)c2ccc(O)cc2)C3=O)cc1 | 0.631 µM [falling, full curve] | 
Cc1cc(C(=O)NCc2ccccc2)c(=O)[nH]c1C | 35.5 µM [falling, single point] | 
CCN(C(=O)COC(=O)c1ccccc1Nc1cccc(C)c1C)C1CCS(=O)(=O)C1 (centres undefined) | 0.355 µM [falling, full curve, poor fit] | 
O=C(Nc1ccc2c(c1)OCO2)c1ccc(Cl)cc1Cl | 3.98 µM [rising, single point] | 
Cc1ccc(C(=O)OC(C)C(=O)NC2CCCCC2C)cc1S(=O)(=O)N1CCOCC1 (centres undefined) | 35.5 µM [rising, single point] | 
Cc1ccc(Oc2c(C(N)=O)cc([N+](=O)[O-])cc2[N+](=O)[O-])cc1 | 18.4 µM [falling, single point] | 32.6 µM [rising, partial curve, poor fit]
COc1ccc(NC(=O)c2cccc(NC(=O)C3C4CC5OC(=O)C3C5C4)c2)c(OC)c1 (centres undefined) | 7.31 µM [falling, partial curve, poor fit] | 
COc1ccccc1NCc1cc(=O)oc2c(C)c(O)ccc12 | 20 µM [falling, single point] | 
O=C(/C=C/c1ccccc1)Nc1ccc(Br)cn1 | 2.82 µM [falling, full curve] | 
O=C1/C(=C\Nc2ccc(OC(F)(F)F)cc2)CCN1c1ncccn1 | 0.517 µM [rising, full curve, poor fit] | 
COc1cccc2cc(C(=O)NCC3CCCO3)c(=O)oc12 (centres undefined) | 6.51 µM [falling, partial curve] | 
CN(c1ccc(C(=O)Nc2ccc3c(c2)OCCO3)cc1)S(C)(=O)=O | 0.259 µM [falling, full curve, poor fit] | 
CCN(CC)S(=O)(=O)c1cc(NC(=O)c2ccc3c(c2)NC(=O)C(C)S3)ccc1C (centres undefined) | 32.6 µM [falling, single point] | 
N#CC(c1ccc(Cl)nn1)c1ccc(Cl)cc1Cl (centres undefined) | 1.64 µM [falling, full curve] | 
Cn1c(C(=O)NCc2cccnc2)cc2sccc21 | 6.51 µM [rising, single point] | 
O=C(NC1CCCC1)C(c1ccncc1)N(Cc1ccco1)C(=O)c1ccc(-c2ccccc2)[nH]1 (centres undefined) | 35.5 µM [falling, single point] | 11.2 µM [rising, partial curve, poor fit]
COc1ccc(N=Nc2ccc(O)c3ncccc23)cc1 | 2.82 µM [rising, full curve, poor fit] | 

Ordered by heavy-atom count (low to high): part of the list above
SMILES | AC50 [1] | AC50 [2]
COc1cccc2cc(C(=O)NCC3CCCO3)c(=O)oc12 (centres undefined) | 6.51 µM [falling, partial curve] | 
CCN(CC)S(=O)(=O)c1cc(NC(=O)c2ccc3c(c2)NC(=O)C(C)S3)ccc1C (centres undefined) | 32.6 µM [falling, single point] | 
O=C(NC1CCCC1)C(c1ccncc1)N(Cc1ccco1)C(=O)c1ccc(-c2ccccc2)[nH]1 (centres undefined) | 35.5 µM [falling, single point] | 11.2 µM [rising, partial curve, poor fit]
